# In the supplement of paper PMC12067093, “Discovery and optimisation of a covalent ligand for TRIM25 and its application to targeted protein ubiquitination” (Chemical Science, 2025):
# By UniProt entry, the sequences of proteins in these tests, tags left out. Where a name states a change or a piece, a line headed by the entry shows the natural chain unless it says otherwise.
# UniProt O43776: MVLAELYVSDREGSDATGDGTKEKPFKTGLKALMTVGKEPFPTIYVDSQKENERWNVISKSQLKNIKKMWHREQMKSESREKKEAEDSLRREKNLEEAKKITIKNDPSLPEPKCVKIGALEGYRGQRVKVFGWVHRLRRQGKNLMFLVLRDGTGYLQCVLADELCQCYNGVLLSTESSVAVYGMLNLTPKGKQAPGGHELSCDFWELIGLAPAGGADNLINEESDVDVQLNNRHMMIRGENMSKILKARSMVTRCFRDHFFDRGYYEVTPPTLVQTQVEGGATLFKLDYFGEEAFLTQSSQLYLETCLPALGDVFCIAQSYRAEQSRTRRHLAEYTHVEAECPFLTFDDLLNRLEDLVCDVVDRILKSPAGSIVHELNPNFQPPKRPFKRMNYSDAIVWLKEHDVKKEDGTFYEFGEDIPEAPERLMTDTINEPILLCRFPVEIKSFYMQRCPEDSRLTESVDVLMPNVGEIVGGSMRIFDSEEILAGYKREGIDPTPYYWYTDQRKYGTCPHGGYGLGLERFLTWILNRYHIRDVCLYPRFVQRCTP
# UniProt P13591, whole entry, looked up: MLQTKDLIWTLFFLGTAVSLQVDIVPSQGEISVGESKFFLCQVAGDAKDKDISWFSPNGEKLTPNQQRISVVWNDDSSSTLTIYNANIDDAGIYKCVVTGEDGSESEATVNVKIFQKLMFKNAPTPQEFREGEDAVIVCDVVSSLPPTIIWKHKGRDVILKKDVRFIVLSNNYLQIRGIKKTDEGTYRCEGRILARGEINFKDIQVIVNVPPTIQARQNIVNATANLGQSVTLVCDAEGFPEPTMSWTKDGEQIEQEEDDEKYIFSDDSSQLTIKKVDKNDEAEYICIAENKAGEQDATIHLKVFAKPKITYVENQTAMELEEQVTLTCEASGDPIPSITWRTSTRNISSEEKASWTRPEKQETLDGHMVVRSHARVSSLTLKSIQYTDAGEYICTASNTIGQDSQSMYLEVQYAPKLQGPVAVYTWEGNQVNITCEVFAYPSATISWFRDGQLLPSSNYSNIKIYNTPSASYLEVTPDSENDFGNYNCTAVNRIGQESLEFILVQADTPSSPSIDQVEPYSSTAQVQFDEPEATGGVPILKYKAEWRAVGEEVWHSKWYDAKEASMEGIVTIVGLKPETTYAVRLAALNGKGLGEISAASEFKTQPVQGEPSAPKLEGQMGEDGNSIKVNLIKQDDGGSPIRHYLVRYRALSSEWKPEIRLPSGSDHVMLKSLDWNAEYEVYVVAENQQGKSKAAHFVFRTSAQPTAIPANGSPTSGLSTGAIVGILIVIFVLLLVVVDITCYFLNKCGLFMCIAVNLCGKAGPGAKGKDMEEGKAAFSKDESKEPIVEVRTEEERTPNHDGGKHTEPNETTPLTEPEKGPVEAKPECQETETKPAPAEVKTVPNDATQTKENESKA
# UniProt Q9H0A0: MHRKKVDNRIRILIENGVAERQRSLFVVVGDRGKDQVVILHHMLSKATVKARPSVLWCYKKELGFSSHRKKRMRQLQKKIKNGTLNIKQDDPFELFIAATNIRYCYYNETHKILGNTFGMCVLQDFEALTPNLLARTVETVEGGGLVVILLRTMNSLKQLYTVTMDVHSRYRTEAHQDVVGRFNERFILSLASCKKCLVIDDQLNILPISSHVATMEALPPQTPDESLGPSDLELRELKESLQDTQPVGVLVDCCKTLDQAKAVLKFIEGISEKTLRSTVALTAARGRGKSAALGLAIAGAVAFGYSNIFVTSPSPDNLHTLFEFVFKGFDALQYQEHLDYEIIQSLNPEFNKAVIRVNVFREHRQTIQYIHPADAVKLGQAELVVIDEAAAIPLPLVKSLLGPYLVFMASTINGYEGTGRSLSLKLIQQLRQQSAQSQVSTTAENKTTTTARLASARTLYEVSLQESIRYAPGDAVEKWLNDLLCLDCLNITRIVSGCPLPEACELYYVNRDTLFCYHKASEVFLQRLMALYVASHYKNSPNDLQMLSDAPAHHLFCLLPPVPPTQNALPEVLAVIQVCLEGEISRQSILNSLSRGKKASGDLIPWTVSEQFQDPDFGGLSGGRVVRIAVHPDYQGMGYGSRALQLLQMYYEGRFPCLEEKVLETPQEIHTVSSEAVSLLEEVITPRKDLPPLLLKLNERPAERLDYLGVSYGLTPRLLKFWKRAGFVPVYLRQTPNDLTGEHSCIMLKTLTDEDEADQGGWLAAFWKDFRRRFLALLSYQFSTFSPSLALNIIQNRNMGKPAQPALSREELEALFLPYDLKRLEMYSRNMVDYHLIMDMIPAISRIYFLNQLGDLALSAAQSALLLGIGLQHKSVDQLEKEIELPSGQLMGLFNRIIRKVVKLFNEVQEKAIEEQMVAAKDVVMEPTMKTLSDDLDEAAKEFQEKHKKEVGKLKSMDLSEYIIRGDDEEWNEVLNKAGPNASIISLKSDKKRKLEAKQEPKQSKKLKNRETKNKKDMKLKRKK
# UniProt Q5VZE5: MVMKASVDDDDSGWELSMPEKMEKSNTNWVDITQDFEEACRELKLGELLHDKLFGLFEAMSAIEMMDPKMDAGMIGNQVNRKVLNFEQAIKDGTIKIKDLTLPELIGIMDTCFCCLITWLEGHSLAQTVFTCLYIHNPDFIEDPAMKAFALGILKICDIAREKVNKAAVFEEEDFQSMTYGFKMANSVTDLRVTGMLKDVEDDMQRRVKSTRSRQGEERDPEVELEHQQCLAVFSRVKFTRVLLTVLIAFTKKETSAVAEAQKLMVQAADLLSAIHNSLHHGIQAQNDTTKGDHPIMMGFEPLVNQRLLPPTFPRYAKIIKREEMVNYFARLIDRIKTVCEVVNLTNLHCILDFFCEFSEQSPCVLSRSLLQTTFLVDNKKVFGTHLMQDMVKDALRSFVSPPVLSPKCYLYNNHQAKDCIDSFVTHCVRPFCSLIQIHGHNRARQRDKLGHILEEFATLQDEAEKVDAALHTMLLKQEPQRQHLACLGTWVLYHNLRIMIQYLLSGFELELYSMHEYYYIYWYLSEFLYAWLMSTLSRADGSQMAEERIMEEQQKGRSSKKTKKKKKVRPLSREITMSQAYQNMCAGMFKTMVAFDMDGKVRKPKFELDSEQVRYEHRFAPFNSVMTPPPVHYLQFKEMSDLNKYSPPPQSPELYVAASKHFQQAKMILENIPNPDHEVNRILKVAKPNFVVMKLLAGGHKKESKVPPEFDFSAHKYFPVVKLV
# UniProt Q6XQN6: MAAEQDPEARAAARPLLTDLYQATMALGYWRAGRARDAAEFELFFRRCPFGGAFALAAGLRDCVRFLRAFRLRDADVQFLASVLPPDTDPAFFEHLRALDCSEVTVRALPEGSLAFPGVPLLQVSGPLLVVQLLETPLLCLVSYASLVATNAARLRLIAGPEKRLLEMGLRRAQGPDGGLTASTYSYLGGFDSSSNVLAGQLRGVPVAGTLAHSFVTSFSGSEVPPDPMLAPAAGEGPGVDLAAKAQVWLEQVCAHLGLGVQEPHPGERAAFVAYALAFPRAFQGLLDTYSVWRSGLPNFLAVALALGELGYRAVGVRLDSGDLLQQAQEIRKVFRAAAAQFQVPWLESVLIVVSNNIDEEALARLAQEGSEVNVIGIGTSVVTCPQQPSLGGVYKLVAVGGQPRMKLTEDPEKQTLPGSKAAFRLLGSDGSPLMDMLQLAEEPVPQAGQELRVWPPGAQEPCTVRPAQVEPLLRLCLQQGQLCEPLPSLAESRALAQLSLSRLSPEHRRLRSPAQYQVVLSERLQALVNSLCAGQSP
# UniProt A2RRP1: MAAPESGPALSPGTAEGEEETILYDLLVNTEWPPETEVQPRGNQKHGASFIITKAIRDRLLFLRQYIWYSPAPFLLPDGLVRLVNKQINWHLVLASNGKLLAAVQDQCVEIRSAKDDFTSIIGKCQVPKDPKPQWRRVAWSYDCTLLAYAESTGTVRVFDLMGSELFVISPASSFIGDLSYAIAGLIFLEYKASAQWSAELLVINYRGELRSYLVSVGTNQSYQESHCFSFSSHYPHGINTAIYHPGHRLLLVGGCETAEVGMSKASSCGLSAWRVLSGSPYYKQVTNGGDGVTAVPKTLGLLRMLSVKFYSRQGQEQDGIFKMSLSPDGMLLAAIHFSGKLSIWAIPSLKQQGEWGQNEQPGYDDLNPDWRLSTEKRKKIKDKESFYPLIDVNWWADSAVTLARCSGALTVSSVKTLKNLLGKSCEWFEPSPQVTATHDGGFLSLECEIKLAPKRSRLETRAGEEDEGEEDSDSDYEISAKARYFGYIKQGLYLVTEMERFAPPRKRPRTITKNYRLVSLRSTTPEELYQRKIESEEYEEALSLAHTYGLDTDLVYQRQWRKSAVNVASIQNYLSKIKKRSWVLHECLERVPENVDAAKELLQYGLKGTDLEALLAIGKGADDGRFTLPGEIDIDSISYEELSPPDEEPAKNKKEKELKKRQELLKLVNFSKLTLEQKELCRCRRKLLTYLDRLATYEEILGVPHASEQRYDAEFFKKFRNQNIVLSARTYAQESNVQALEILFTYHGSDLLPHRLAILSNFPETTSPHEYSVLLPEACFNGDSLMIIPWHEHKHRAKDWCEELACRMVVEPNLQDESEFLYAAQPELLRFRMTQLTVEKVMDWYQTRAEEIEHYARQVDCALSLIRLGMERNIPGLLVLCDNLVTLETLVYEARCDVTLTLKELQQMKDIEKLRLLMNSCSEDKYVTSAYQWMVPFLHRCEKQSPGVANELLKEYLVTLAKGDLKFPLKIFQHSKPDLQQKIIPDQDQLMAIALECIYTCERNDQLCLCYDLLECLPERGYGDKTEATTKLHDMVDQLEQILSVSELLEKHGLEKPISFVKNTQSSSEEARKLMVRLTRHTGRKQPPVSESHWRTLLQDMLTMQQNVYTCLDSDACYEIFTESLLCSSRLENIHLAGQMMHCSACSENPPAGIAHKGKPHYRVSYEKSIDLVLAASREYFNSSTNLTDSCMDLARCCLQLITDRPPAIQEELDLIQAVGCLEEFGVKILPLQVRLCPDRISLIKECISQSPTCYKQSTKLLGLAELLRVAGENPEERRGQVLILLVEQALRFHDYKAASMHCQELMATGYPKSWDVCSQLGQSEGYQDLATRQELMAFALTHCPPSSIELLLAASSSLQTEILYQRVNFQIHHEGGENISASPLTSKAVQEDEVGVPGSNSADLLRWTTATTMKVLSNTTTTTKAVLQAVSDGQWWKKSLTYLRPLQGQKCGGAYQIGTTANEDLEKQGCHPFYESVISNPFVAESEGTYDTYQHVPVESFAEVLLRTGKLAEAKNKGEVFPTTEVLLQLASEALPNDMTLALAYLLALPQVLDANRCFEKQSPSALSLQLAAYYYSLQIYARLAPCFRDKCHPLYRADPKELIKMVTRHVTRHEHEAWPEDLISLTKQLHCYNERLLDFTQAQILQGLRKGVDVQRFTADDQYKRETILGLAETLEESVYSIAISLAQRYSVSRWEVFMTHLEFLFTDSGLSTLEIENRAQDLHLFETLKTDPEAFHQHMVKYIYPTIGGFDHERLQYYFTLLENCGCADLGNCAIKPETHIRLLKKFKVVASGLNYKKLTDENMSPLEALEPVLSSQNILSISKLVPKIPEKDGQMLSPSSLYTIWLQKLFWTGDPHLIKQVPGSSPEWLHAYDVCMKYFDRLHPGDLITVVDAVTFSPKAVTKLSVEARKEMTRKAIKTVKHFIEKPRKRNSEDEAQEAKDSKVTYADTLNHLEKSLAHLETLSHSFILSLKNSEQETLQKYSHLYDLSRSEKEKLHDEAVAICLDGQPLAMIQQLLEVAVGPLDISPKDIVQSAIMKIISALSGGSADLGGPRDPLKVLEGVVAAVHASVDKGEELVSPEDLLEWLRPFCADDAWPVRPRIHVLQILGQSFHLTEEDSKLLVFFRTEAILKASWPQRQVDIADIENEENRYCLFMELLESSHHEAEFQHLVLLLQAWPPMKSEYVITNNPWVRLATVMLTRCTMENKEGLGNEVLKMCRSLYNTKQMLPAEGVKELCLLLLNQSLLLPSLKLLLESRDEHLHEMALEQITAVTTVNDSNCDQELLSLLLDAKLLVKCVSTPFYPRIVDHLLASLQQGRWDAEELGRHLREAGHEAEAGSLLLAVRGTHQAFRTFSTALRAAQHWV
# The list shows a part of the results.
# Compound: Cc1cc(ccc1-c1ccccc1)C(=O)N1CCCN(CC1)C(=O)CCl [compound 10]
# Test: probe-labelled cysteine peptide fold change vs DMSO (competition) (log2 fold change); higher = less target engagement (more negative = stronger competition)
# Settings: THP-1, incubation time: 4 h
# 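Note: competitive profiling in live THP-1 cells: cysteine peptides tagged with an iodoacetamide desthiobiotin (IA-DTB) probe, intensity after compound treatment relative to DMSO-treated cells.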
Target,probe-labelled cysteine peptide fold change (10 µM),probe-labelled cysteine peptide fold change (50 µM)
MYO1G_B0I1T2_618_LDENHCR (UniProt B0I1T2),0.223,-0.00724
MYO6_Q9UM54_587_HFAGAVCYETTQFVEK (UniProt Q9UM54),0.108,0.225
MYO1F_O00160_788_CVYVIGR (UniProt O00160),0.0832,0.101
MYO18A_Q92614_1155_RAVEELLECLDLEK (UniProt Q92614),0.216,0.133
NARS_O43776_511_KYGTCPHGGYGLGLER (UniProt O43776),-0.519,0.0682
NCAPH2_Q6IBW4_309_EGAPEPASCVK (UniProt Q6IBW4),-0.129,0.0477
NCAM1_P13591_287_NDEAEYICIAENK (UniProt P13591),-0.152,0.289
NAT10_Q9H0A0_517_DTLFCYHK (UniProt Q9H0A0),0.114,0.38
NARS_O43776_342_HLAEYTHVEAECPFLTFDDLLNR (UniProt O43776),0.59,0.656
NAA35_Q5VZE5_420_DCIDSFVTHCVRPFCSLIQIHGHNR (UniProt Q5VZE5),-0.188,-0.265
NAA80_Q93015_104_LHSLGQSSDAFPLCLMLLSPHPTLEAAPVVVGHAR (UniProt Q93015),0.114,-0.122
NAPRT_Q6XQN6_101_ALDCSEVTVR (UniProt Q6XQN6),0.0272,0.124
NBAS_A2RRP1_1634_QLHCYNER (UniProt A2RRP1),0.0234,-0.116
MYOF_Q9NZM1_1553_ELPDSVPQECTVR (UniProt Q9NZM1),-0.0698,0.0265
